Results deposited as PubChem BioAssay AID1259308 (NCATS, 2017).
The deposit covers about 59,000 reagents; below is a part drawn at random. In the full data, about 1,510 (2.6%) got an active call. 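Calls use total luciferase alone and ignore viability, so some active siRNAs may act by altering cell number.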 Reagents against one gene are numbered here. Not all columns of the deposit are shown.

Aim: 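Genes whose loss raises luciferase production in HEK293 cells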 (primary screen)
Cells: human HEK293 embryonic kidney cells stably expressing firefly luciferase (HEK-CMV-Luc2-Hygro)
Knock-down reagent: single siRNA against human genes, 0.8 pmol siRNA per well
Duration: 72 h
Measurement: 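Luciferase light (ONE-Glo) measured on one replicate plate set and viability (CellTiter-Glo) on the other, scaled to a negative control siRNA, with robust z-scores and luciferase per cell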
Reading the numbers: total luciferase, z-score: higher = more reporter protein produced
Active means: 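An siRNA counts as active if its total luciferase robust z-score exceeds 3; genes with two or more such siRNAs out of three were retested with fresh siRNAs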
Calls: active = raised luciferase; inactive = no rise

total luciferase, z-score, by gene and reagent
DMRT2: #1 -0.0751 inactive; #2 0.00452 inactive; #3 1.41 inactive
TMEM132E: #1 0.0366 inactive; #2 0.093 inactive; #3 0.185 inactive
KIAA0513: #1 0.597 inactive; #2 0.137 inactive; #3 -0.449 inactive
PPP2R2B: #1 0.191 inactive; #2 1.14 inactive; #3 -0.569 inactive
SEMA3F: #1 0.38 inactive; #2 2.8 inactive; #3 0.147 inactive
ASMTL: #1 -0.626 inactive; #2 -1.22 inactive; #3 -0.312 inactive
BTBD3: #1 0.893 inactive; #2 0.453 inactive; #3 -0.0158 inactive
SPEG: #1 0.0671 inactive; #2 0.328 inactive; #3 -0.539 inactive
CLEC11A: #1 -0.472 inactive; #2 -0.246 inactive; #3 -1.27 inactive
PMS2P12: #1 2.26 inactive; #2 -0.476 inactive; #3 -0.568 inactive
CYFIP2: #1 0.338 inactive; #2 -0.203 inactive; #3 0.702 inactive
SIX4: #1 -0.266 inactive; #2 -0.916 inactive; #3 -1.63 inactive
BACH2: #1 1.08 inactive; #2 1.29 inactive; #3 0.658 inactive
ZNF507: #1 0.421 inactive; #2 0.824 inactive; #3 -0.373 inactive
UGGT1: #1 -1.21 inactive; #2 -0.238 inactive; #3 -0.506 inactive
VANGL2: #1 0.131 inactive; #2 -1.42 inactive; #3 0.00857 inactive
TMED7: #1 0.047 inactive; #2 -0.114 inactive; #3 -0.627 inactive
DEPP1: #1 1.48 inactive; #2 0.505 inactive; #3 -0.96 inactive
TMC1: #1 0.418 inactive; #2 0.416 inactive; #3 -0.0658 inactive
